Results: publication PMC5716712

Amino acid sequences for entries named in this document (tags omitted).
UniProt P60484: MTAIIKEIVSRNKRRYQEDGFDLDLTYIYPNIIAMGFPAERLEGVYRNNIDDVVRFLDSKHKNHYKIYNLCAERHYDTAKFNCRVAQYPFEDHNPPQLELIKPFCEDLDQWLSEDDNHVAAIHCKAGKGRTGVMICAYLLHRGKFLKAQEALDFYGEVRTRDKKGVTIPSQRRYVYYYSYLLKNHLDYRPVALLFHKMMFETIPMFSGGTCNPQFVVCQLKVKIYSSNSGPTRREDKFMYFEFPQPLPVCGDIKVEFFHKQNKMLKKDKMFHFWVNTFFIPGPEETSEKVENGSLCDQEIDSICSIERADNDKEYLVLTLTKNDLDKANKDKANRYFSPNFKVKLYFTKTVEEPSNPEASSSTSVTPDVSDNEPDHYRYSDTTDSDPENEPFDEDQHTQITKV

Target: S-HA-PTEN (UniProt P60484)
Test: affinity purification with mass spectrometry; cells transfected with S-HA tagged genes, lysed in cold 0.5% NP40 buffer (pH 8.0 Tris 10 mM, NaCl 150 mM), S Tag beads 4°C overnight, washed with 0.1% NP40 buffer, SDS-PAGE and LC-MS

- binding: binds
B1: MAD1 (protein, UniProt Q9Y6D9 1-718)
chain: MEDLGENTMVLSTLRSLNNFISQRVEGGSGLDISTSAPGSLQMQYQQSMQLEERAEQIRSKSHLIQVEREKMQMELSHKRARVELERAASTSARNYEREVDRNQELLTRIRQLQEREAGAEEKMQEQLERNRQCQQNLDAASKRLREKEDSLAQAGETINALKGRISELQWSVMDQEMRVKRLESEKQELQEQLDLQHKKCQEANQKIQELQASQEARADHEQQIKDLEQKLSLQEQDAAIVKNMKSELVRLPRLERELKQLREESAHLREMRETNGLLQEELEGLQRKLGRQEKMQETLVGLELENERLLAKLQSWERLDQTMGLSIRTPEDLSRFVVELQQRELALKDKNSAVTSSARGLEKARQQLQEELRQVSGQLLEERKKRETHEALARRLQKRVLLLTKERDGMRAILGSYDSELTPAEYSPQLTRRMREAEDMVQKVHSHSAEMEAQLSQALEELGGQKQRADMLEMELKMLKSQSSSAEQSFLFSREEADTLRLKVEELEGERSRLEEEKRMLEAQLERRALQGDYDQSRTKVLHMSLNPTSVARQRLREDHSQLQAECERLRGLLRAMERGGTVPADLEAAAASLPSSKEVAELKKQVESAELKNQRLKEVFQTKIQEFRKACYTLTGYQIDITTENQYRLTSLYAEHPGDCLIFKATSPSGSKMQLLETEFSHTVGELIEVHLRRQDSIPAFLSSLTLELFSRQTVA

These are yes or no findings as the source states them, for the method shown. In cells and extracts the contact can be indirect. These calls come from enrichment with a bait or labelling near it, and not all partners need be listed.
